Test results: publication PMC6744478
Results are given in words; binding and its absence hold for the method and conditions named. Some entries that bind do so weakly or less than the wild type.

The chains behind the UniProt entries cited, without tags or fusion partners. Residues count along the entry.
UniProt O14775, residues 43-395: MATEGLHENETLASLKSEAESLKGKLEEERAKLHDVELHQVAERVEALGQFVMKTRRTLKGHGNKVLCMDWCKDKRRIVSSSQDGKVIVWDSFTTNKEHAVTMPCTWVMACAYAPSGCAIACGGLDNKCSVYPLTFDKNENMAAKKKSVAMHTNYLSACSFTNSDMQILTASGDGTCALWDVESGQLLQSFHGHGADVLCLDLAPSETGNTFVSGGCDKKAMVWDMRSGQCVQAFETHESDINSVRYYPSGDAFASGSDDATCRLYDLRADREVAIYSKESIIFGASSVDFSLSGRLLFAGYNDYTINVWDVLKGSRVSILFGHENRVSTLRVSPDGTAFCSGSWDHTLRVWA

Target: Gβ5 (GNB5, short form), N-terminally tagged (human) (UniProt O14775)
Test: co-purification; R7-RGS protein expressed with N-terminally HIS- or TS-tagged Gβ5 in Expi293 cells; duplex purified on HisTrap HP or StrepTrap HP (washes with ATP/MgCl2 and 4.5 M NaCl), SEC if needed

Row | binding | Binder
1 | binds | RGS6 (protein, UniProt P49758 1-472) MAQGSGDQRAVGVADPEESSPNMIVYCKIEDIITKMQDDKTGGVPIRTVKSFLSKIPSVVTGTDIVQWLMKNLSIEDPVEAIHLGSLIAAQGYIFPISDHVLTMKDDGTFYRFQAPYFWPSNCWEPENTDYAIYLCKRTMQNKARLELADYEAENLARLQRAFARKWEFIFMQAEAQVKIDRKKDKTERKILDSQERAFWDVHRPVPGCVNTTEMDIRKCRRLKNPQKVKKSVYGVTEESQAQSPVHVLSQPIRKTTKEDIRKQITFLNAQIDRHCLKMSKVAESLIAYTEQYVEYDPLITPAEPSNPWISDDVALWDIEMSKEPSQQRVKRWGFSFDEILKDQVGRDQFLRFLESEFSSENLRFWLAVQDLKKQPLQDVAKRVEEIWQEFLAPGAPSAINLDSHSYEITSQNVKDGGRYTFEDAQEHIYKLMKSDSYARFLRSNAYQDLLLAKKKGKSLAGKRLTGLMQSS
2 | binds | RGS9-2 (protein, UniProt O75916 1-674) MTIRHQGQQYRPRMAFLQKIEALVKDMQNPETGVRMQNQRVLVTSVPHAMTGSDVLQWIVQRLWISSLEAQNLGNFIVRYGYIYPLQDPKNLILKPDGSLYRFQTPYFWPTQQWPAEDTDYAIYLAKRNIKKKGILEEYEKENYNFLNQKMNYKWDFVIMQAKEQYRAGKERNKADRYALDCQEKAYWLVHRCPPGMDNVLDYGLDRVTNPNEVKVNQKQTVVAVKKEIMYYQQALMRSTVKSSVSLGGIVKYSEQFSSNDAIMSGCLPSNPWITDDTQFWDLNAKLVEIPTKMRVERWAFNFSELIRDPKGRQSFQYFLKKEFSGENLGFWEACEDLKYGDQSKVKEKAEEIYKLFLAPGARRWINIDGKTMDITVKGLKHPHRYVLDAAQTHIYMLMKKDSYARYLKSPIYKDMLAKAIEPQETTKKSSTLPFMRRHLRSSPSPVILRQLEEEAKAREAANTVDITQPGQHMAPSPHLTVYTGTCMPPSPSSPFSSSCRSPRKPFASPSRFIRRPSTTICPSPIRVALESSSGLEQKGECSGSMAPRGPSVTESSEASLDTSWPRSRPRAPPKARMALSFSRFLRRGCLASPVFARLSPKCPAVSHGRVQPLGDVGQQLPRLKSKRVANFFQIKMDVPTGSGTCLMDSEDAGTGESGDRATEKEVICPWESL
